The text below walks through data of paper PMC6152180, “Design, Synthesis and Evaluation of Hesperetin Derivatives as Potential Multifunctional Anti-Alzheimer Agents” (Molecules : A Journal of Synthetic Chemistry and Natural …, 2017).

The nature of this experiment: Oxygen radical absorbance capacity-fluorescein (ORAC-FL) assay. Particulars: Trolox equivalents, Trolox = 1.

Structures are written as SMILES.

With `COc1cc2c(cc1OC)C(=O)C(CC1CCN(Cc3ccccc3)CC1)C2` (stereo not shown) [Donepezil, donepezil, reference compound], the ORAC is listed as <0.1 μM of Trolox equivalent/μMof tested compound.
